Reference: PubChem BioAssay AID540276 (National Center for Advancing Translational Sciences (NCATS), 2011)
Values joined by “and” are separate entries in the source; they are usually repeats but may differ in a detail not shown here. Equal values may be shown once. Hit rate of the full screen: of about 300,000 compounds, about 5,400 (1.8%) were called active. The shares of active, inactive and inconclusive entries below differ from those in the screen. Calls come from the whole dose curve; tested in HEK293 cells. Potencies beside an inconclusive call are fits to weak or partial responses and may not hold up.
% is set by controls: 0 for no effect and ±100 for the full control effect; potency is the fitted concentration of half-maximal effect.

Assay: qHTS for inhibitors of binding or entry into cells for Marburg Virus
Settings: Marburg virus pseudotyped entry inhibition, cell reporter; activity change, negative = inhibition: at 37.8 µM (top of the series) unless noted
With Cc1cc(=O)[nH]c(SCC(=O)Nc2ccc(S(=O)(=O)N3CCCCC3)cc2)n1 the Potency was inconclusive: 6.51 µM [inhibitor, single point].
For O=C(c1ccc(F)cc1)N1CCN(c2cc(=O)[nH]nc2-c2ccccc2)CC1, the Potency was inconclusive: 0.231 µM [inhibitor, partial curve, poor fit].
With Cc1ccccc1C(=O)Nc1sc2c(c1C(=O)NCc1ccco1)CCC(C(C)(C)C)C2 (centres undefined) the “activity change, negative = inhibition” value was inactive: -19.8% [at 46.1 µM].
In the case of O=C(N/N=C/c1c(O)n(CCC2=CCCCC2)c(=S)[nH]c1=O)c1ccccc1, the Potency is reported as inconclusive: 31.6 µM [activator, single point].
In the case of COc1ccccc1CNc1nc(-c2ccco2)nn1S(=O)(=O)c1ccc2ccccc2c1, the “activity change, negative = inhibition” value is reported as inactive: 2.4% [at 46.1 µM].
For Cc1ccc(S(=O)(=O)CCC(=O)N(C)C2CCCCC2)cc1, the “activity change, negative = inhibition” value was inactive: 17.1%.
With COc1cccc(Cn2cnc3c(NS(=O)(=O)c4cc(Cl)ccc4Cl)c(C)c(C)cc32)c1 the Potency was inconclusive: 16.4 µM [inhibitor, single point].
For Cc1cccc(-c2noc(-c3ccccc3OCC(=O)Nc3ccc([N+](=O)[O-])cc3)n2)c1, the “activity change, negative = inhibition” value was inactive: -5.74% [at 46.1 µM].
For O=C(c1cc2nc(-c3ccccc3)cc(-c3ccccc3)n2n1)N1CCCC1, the Potency was inconclusive: 8.91 µM [activator, partial curve, poor fit].
For CCCCc1ccc(NC(=S)NCCc2ccc(F)cc2)cc1, the Potency was inconclusive: 22.4 µM [inhibitor, partial curve, poor fit].
With CCC1=Nc2cc(C(=O)NCCCOC)ccc2Sc2ccc(Br)cc21 the Potency was inconclusive: 2.82 µM [inhibitor, single point].
With CCOC(=O)N1CCC(NC(=O)c2ccc(OC)c(CN3CC(=O)N4CCCC4C3=O)c2)CC1 (centres undefined) the Potency was “inactive”.
For O=C(Cn1nnc(-c2cccc(C(F)(F)F)c2)n1)N1CCCCCC1, the Potency was inconclusive: 35.5 µM [inhibitor, single point].
With CCN(CC)CCCNC(=O)CSc1nc(-c2ccc(F)cc2)cc(C(F)(F)F)n1 the Potency was inconclusive: 35.5 µM [inhibitor, single point].
For Cc1ccc(C)c(NC(=O)CN(C)C(=O)Cc2ccccc2)c1, the “activity change, negative = inhibition” value was inactive: 9.33%.
For O=S(=O)(c1ccc(Cl)cc1)N1CCN(Cc2ccc(O)c3ncccc23)CC1, the Potency was active: 12.6 µM.
In the case of O=C(O)Cn1cc(/C=N/Nc2ccc([N+](=O)[O-])cn2)c2ccccc21, the “activity change, negative = inhibition” value is reported as inactive: 6.35%.
With Cc1noc(NC(=O)c2cccc(C(F)(F)F)c2)c1Cl the “activity change, negative = inhibition” value was inactive: -23.4% [at 46.1 µM].
For Cc1ccccc1C(=O)NC1CCN(CC(=O)NCc2ccccc2)CC1, the Potency was inconclusive: 4.47 µM [inhibitor, single point].
In the case of CCOC(=O)Cc1csc(NC(=O)C(NC(=O)C2CCCCC2)C(C)C)n1 (centres undefined), the “activity change, negative = inhibition” value is reported as inactive: 12.4% [at 46.1 µM].
In the case of CC(C(=O)Nc1ccc(C#N)cc1)N(C)Cc1cccs1 (centres undefined), the Potency is reported as inconclusive: 22.4 µM [inhibitor, single point].
With Cc1noc(C)c1C(=O)OCC(=O)Nc1ccccc1C(=O)NC(C)c1ccccc1 (centres undefined) the Potency was inconclusive: 29.1 µM [inhibitor, partial curve, poor fit].
In the case of CCOC(=O)COc1ccc([N+](=O)[O-])cc1-c1ccnc2cc(-c3ccc(Cl)cc3)nn12, the “activity change, negative = inhibition” value is reported as inactive: 8.13% [at 46.1 µM].
For Cc1ccccc1NS(=O)(=O)c1ccc(C(=O)N2CCN(S(=O)(=O)c3ccccc3)CC2)cc1, the Potency was inconclusive: 31.6 µM [inhibitor, single point].
For N/C(=N\OC(=O)COc1ccc(Br)cc1Cl)c1ccccn1, the Potency was inconclusive: 7.31 µM [inhibitor, partial curve, poor fit].
For O=C1CC(SC2=NCCS2)C(=O)N1c1ccc(Br)cc1 (centres undefined), the “activity change, negative = inhibition” value was inactive: -3.81%.
For Cc1ccc(S(=O)(=O)N2CCN(C(=O)COC(=O)CCOc3ccc(C(C)(C)C)cc3)CC2)cc1, the “activity change, negative = inhibition” value was inactive: -6.67% [at 46.1 µM].
With CCSc1nnc2c(n1)[nH]c1c(C)cccc12 the Potency was inconclusive: 8.2 µM [inhibitor, partial curve, poor fit].
In the case of Cc1nnnn1/C(=C\c1ccccc1)C(=O)OCC(=O)Nc1ccc(Cl)cc1F, the Potency is reported as inconclusive: 14.1 µM [inhibitor, single point].
With COc1ccc(N=Cc2cccc(C)c2O)cc1Cl the “activity change, negative = inhibition” value was inactive: 20.1%.
With CCOC(=O)c1ccc[n+](CC(=O)Nc2cc(C(F)(F)F)ccc2Cl)c1 the Potency was inconclusive: 0.562 µM [inhibitor, full curve, poor fit].
In the case of Nc1nonc1-n1nnc(C(=O)N/N=C/c2ccccn2)c1-c1ccccc1, the Potency is reported as inconclusive: 2.51 µM [activator, partial curve, poor fit].
In the case of O=C(O)c1cccc(NCc2ccncc2)c1, the “activity change, negative = inhibition” value is reported as inactive: 0.949%.
For CCOC(=O)C1CCCN(C(=O)c2cn(CC)c3ccc(S(=O)(=O)N4CCCC4)cc3c2=O)C1 (centres undefined), the “activity change, negative = inhibition” value was inactive: 3.14%.
With Cc1cc(Cl)nc(-n2nc(C)cc2C)n1 the “activity change, negative = inhibition” value was inactive: -3.09%.
For Cc1cccc(N2CCN(C(=O)c3ccc4ccccc4c3)CC2C)c1 (centres undefined), the Potency was inconclusive: 35.5 µM [inhibitor, single point].
With O=C(Nc1cc(C(=O)N2CCN(c3ccccc3O)CC2)ccc1Cl)c1cccs1 the Potency was inconclusive: 0.794 µM [activator, single point].
In the case of Cc1ccc(S(=O)(=O)CCSc2nc(C)cc(C(F)(F)F)c2C#N)cc1, the “activity change, negative = inhibition” value is reported as inactive: -46.8%.
For CC(=O)c1cccc(NC(=O)N2CCC(NC(=O)c3ccco3)CC2)c1, the Potency was inconclusive: 0.562 µM [activator, full curve, poor fit].
With O=C(C1CCN(S(=O)(=O)c2cccc([N+](=O)[O-])c2)CC1)N1CCOCC1 the Potency was inconclusive: 6.31 µM [activator, single point].
With COC(=O)C1=CN(CC2CCCO2)C=C(C(=O)OC)C1c1cc(OC)c(OC)c(OC)c1 (centres undefined) the “activity change, negative = inhibition” value was inactive: 1.48%.
In the case of O=C(CN1CCOCC1)N/N=C/c1ccco1, the Potency is reported as inconclusive: 2.24 µM [activator, single point].
In the case of CCOc1cc2sc(N3CCC(C(=O)Nc4ccc(C)cc4C)CC3)nc2cc1Br, the Potency is reported as inconclusive: 10 µM [activator, partial curve, poor fit].
For O=C(N[C@@H](Cc1ccccc1)C(=O)CCl)OCc1ccccc1, the Potency was active: 1.41 µM and active: 16.4 µM.
For CCC(C)[C@H](NC(=O)N1CCN(C)CC1)C(=O)OC (some centres undefined), the Potency was inconclusive: 1.26 µM [inhibitor, single point].
With COc1ccccc1NC(=O)CN1CCN(C2c3ccccc3-c3ccccc32)CC1 the Potency was inconclusive: 10 µM [inhibitor, partial curve, poor fit].
For CCCc1nc2ccc(Br)cc2c(=O)n1-c1ccc([N+](=O)[O-])c(C(F)(F)F)c1, the Potency was inconclusive: 14.1 µM [inhibitor, single point].
With O=C(c1cccc(S(=O)(=O)N2CCc3ccccc32)c1)N1CCN(c2ccccc2)CC1 the Potency was inconclusive: 2.82 µM [inhibitor, full curve, poor fit].
For C/C(=N\Nc1ccc([N+](=O)[O-])cc1[N+](=O)[O-])c1ccc(-n2nncc2C(C)(C)C)cc1, the Potency was inconclusive: 6.31 µM [inhibitor, single point].
For Cc1cc(C(=O)N/N=C/c2ccc(OC(=O)c3ccccc3Br)cc2)n[nH]1, the activity change, negative = inhibition was inconclusive: 23% [activator].
For CC(=O)Oc1ccc(C(=O)[C@H]2[C@H]3C(=O)N(c4ccc(C)cc4)C(=O)[C@H]3[C@@H]3C=CC=NN32)cc1, the Potency was inconclusive: 1.26 µM [inhibitor, partial curve, poor fit].
For O=C(NC1CCCc2c1cnn2-c1cc(F)cc(F)c1)c1ccccn1 (centres undefined), the Potency was inconclusive: 20 µM [inhibitor, partial curve, poor fit].
In the case of CCCC(=O)NCC1(N(C)C)CCCCC1, the “activity change, negative = inhibition” value is reported as inactive: 34.6% [at 46.1 µM].
In the case of CCN1C(=O)CCCc2ccccc21, the Potency is reported as inconclusive: 11.2 µM [inhibitor, partial curve].
For Nc1nc(Nc2ccccc2F)nc(N2CCOCC2)c1[N+](=O)[O-], the Potency was inconclusive: 0.631 µM [inhibitor, single point].
In the case of Cc1ccc(C(=O)Nc2ccncc2)c(C)c1, the “activity change, negative = inhibition” value is reported as inactive: -8.99%.
For CCCCSc1cnn(-c2ccccc2)c(=O)c1SCCCC, the Potency was inconclusive: 29.1 µM [inhibitor, single point].
In the case of COc1ccc(-n2nc(C(=O)NCC(=O)N3CCCC3)c3ccccc3c2=O)cc1Cl, the Potency is reported as inconclusive: 35.5 µM [activator, single point].
In the case of N#Cc1ccc(C(=O)Nc2cc3nn(-c4ccccc4)nc3cc2Cl)c(F)c1, the “activity change, negative = inhibition” value is reported as inactive: 21.9% [at 46.1 µM].
For COCC(=O)Nc1cc(Cl)c(OC)cc1OC, the Potency was inconclusive: 7.31 µM [inhibitor, single point].
In the case of CC(NC(=O)CCl)c1ccc(Cl)c(Cl)c1 (centres undefined), the Potency is reported as inconclusive: 22.4 µM [inhibitor, single point].
With CCC1CCCCN1C(=O)CSc1nc2c(c(=O)n1C)SC(C)C2 (centres undefined) the Potency was inconclusive: 1.26 µM [inhibitor, single point].
With Cc1cc(Nc2ccccc2)nc(NCc2ccccc2)n1 the Potency was inconclusive: 3.16 µM [inhibitor, partial curve, poor fit].
With CCS(=O)(=O)N1CCCC(C(=O)NC2CCCCC2)C1 (centres undefined) the “activity change, negative = inhibition” value was inactive: 2.29%.
For O=C(c1cc(-c2ccccc2)nn1-c1ccccc1)N1CCN(S(=O)(=O)c2c(F)cccc2F)CC1, the “activity change, negative = inhibition” value was inactive: 18.4%.
In the case of O=c1c2cc(NC(=S)NCc3cccnc3)ccc2nc2n1CCCCC2, the Potency is reported as inconclusive: 12.6 µM [activator, partial curve, poor fit].
For O=C(COC(=O)C1CC(=O)N(Cc2ccco2)C1)Nc1ccccc1[N+](=O)[O-] (centres undefined), the “activity change, negative = inhibition” value was inactive: -20.9% [at 46.1 µM].
With O=C(NOCc1ccccc1)c1ccc([N+](=O)[O-])cc1 the Potency was inconclusive: 3.16 µM [activator, single point].
In the case of COc1cc(N/N=C/c2ccccc2O)ncn1, the Potency is reported as inconclusive: 11.6 µM [inhibitor, single point].
